No constants are given. Whether binding was seen depends on the method and setting. Some binding calls cover weakened binding; strength is not graded here.
Molecular target: IgG constant region-CD21 fusion protein (UniProt P20023)
Assay: ELISA, IgG constant region-CD21 fusion coated, detection with biotinylated anti-C3d antibody

By UniProt entry, the sequences of proteins in these tests, tags left out. Residues count along the entry.
UniProt P20023, residues 21-148: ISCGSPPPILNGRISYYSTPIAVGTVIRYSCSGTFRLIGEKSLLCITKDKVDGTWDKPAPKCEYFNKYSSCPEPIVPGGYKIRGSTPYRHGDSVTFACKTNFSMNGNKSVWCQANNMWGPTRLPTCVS
UniProt P01024, residues 1002-1303: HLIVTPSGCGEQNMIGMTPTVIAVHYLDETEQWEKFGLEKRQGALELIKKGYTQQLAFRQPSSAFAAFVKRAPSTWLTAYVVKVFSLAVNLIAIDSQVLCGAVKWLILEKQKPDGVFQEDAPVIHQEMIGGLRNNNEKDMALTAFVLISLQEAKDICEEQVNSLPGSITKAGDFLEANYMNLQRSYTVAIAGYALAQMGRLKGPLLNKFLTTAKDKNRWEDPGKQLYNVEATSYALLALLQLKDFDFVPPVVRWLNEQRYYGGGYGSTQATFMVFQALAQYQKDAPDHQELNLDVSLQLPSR

binding: binds
Substance: human C3d (Calbiochem) (from UniProt P01024 1002-1303) (ligand)

— US20070104726A1
